For one substance, binding results are on record in article doi:10.1101/2025.07.26.666918.

No constants are given. Whether binding was seen depends on the method and setting. Binding seen in cells or lysates may run through a third protein. Here binding means that the protein was enriched with, or labelled near, the bait; the list need not be complete. A no says only that the protein was not detected with the bait.

In this assay the target is SARS-CoV-2 Orf9b, 2xStrep-tagged, expressed in HEK293T cells (SARS-CoV-2) (UniProt P0DTD2). Nature of the assay: affinity purification with mass spectrometry.

“MTARC2, human, endogenous in HEK293T cells (from UniProt Q969Z3 36-335)”: the binding entry is “no binding”.
